Reference: US20210230294A1
No constants are given. Whether binding was seen depends on the method and setting. Some results given as binding are weak or reduced against the parent protein; the word gives no strength.

By UniProt entry, the sequences of proteins in these tests, tags left out. Where a name states a change or a piece, a line headed by the entry shows the natural chain unless it says otherwise.
UniProt P21589: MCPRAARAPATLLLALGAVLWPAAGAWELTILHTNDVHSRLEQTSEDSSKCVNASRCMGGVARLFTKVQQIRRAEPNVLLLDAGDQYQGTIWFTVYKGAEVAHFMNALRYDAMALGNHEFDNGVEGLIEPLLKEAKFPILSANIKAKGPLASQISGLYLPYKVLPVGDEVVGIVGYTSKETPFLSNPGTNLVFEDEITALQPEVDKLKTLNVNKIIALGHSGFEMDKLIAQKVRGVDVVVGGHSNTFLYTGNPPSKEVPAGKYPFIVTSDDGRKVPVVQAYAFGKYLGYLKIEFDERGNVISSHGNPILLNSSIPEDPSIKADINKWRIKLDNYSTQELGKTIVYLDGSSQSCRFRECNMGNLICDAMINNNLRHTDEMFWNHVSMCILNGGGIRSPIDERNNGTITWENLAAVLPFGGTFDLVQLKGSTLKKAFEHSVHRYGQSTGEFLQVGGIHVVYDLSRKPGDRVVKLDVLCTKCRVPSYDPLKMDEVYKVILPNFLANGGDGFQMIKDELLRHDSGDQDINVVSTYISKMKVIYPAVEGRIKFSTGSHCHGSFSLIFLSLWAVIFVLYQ

The binders below were run against human CD73 on the cell surface (MDA-MB-231 and A375 cells) (human) (UniProt P21589) (assay: flow cytometry on MDA-MB-231 cells, PE-conjugated secondary antibody, GMFI).

Row | Binder | binding
1 | CL25_hu_8-5 (antibody, V domains shown) VH: QVQLVQSGAEVKKPGASVKVSCKASGYTFTSYGLSWVRQATGQGLEWMGEIYPGSGNTYYNEKFKGRVTMTRNTSISTAYMELSSLRSEDTAVYYCARYDYLGSSYGFDYWGAGTTVTVSS VL: DIVMTQSPDSLAVSLGERATINCKASQDVSTAVAWYQQKPGQPPKLLIYSASYRYSGVPDRFSGSGSGTDFTLTISSLQAEDVAVYYCQQHYNTPYTFGGGTKLEIK | binds
2 | CL25_hu_9-5 (antibody, V domains shown) VH: QVQLVQSGAEVKKPGSSVKVSCKASGYTFTSYGLSWVRQAPGQGLEWMGEIYPGSGNTYYNEKFKGRVTITADESTSTAYMELSSLRSEDTAVYYCARYDYLGSSYGFDYWGAGTTVTVSS VL: DIVMTQSPDSLAVSLGERATINCKASQDVSTAVAWYQQKPGQPPKLLIYSASYRYSGVPDRFSGSGSGTDFTLTISSLQAEDVAVYYCQQHYNTPYTFGGGTKLEIK | binds
3 | CL25_hu_9-4 (antibody, V domains shown) VH: QVQLVQSGAEVKKPGSSVKVSCKASGYTFTSYGLSWVRQAPGQGLEWMGEIYPGSGNTYYNEKFKGRVTITADESTSTAYMELSSLRSEDTAVYYCARYDYLGSSYGFDYWGAGTTVTVSS VL: DIQMTQSPSSLSASVGDRVTITCKASQDVSTAVAWYQQKPGKAPKLLLYSASYRYSGVPSRFSGSGSGTDYTLTISSLQPEDFATYYCQQHYNTPYTFGGGTKLEIK | binds
4 | CL25_hu_8-4 (antibody, V domains shown) VH: QVQLVQSGAEVKKPGASVKVSCKASGYTFTSYGLSWVRQATGQGLEWMGEIYPGSGNTYYNEKFKGRVTMTRNTSISTAYMELSSLRSEDTAVYYCARYDYLGSSYGFDYWGAGTTVTVSS VL: DIQMTQSPSSLSASVGDRVTITCKASQDVSTAVAWYQQKPGKAPKLLLYSASYRYSGVPSRFSGSGSGTDYTLTISSLQPEDFATYYCQQHYNTPYTFGGGTKLEIK | binds
5 | CL25_hu_8-6 (antibody, V domains shown) VH: QVQLVQSGAEVKKPGASVKVSCKASGYTFTSYGLSWVRQATGQGLEWMGEIYPGSGNTYYNEKFKGRVTMTRNTSISTAYMELSSLRSEDTAVYYCARYDYLGSSYGFDYWGAGTTVTVSS VL: AIRMTQSPSSFSASTGDRVTITCKASQDVSTAVAWYQQKPGKAPKLLIYSASYRYSGVPSRFSGSGSGTDFTLTISCLQSEDFATYYCQQHYNTPYTFGGGTKLEIK | binds

Now from value to binder:

Row | binding | Binder
6 | binds | CL25_hu_11-5 (antibody, V domains shown) VH: QVQLVQSGAEVKKPGASVKVSCKASGYTFTSYGLSWVRQATGQGLEWMGEIYPGSGNTYYNEKFKGRVTMTANTSISTAYMELSSLRSEDTAVYYCARYDYLGSSYGFDYWGAGTTVTVSS VL: DIVMTQSPDSLAVSLGERATINCKASQDVSTAVAWYQQKPGQPPKLLIYSASYRYSGVPDRFSGSGSGTDFTLTISSLQAEDVAVYYCQQHYNTPYTFGGGTKLEIK
7 | binds | CL25_hu_10-6 (antibody, V domains shown) VH: EVQLVQSGAEVKKPGESLKISCKGSGYTFTSYGLSWVRQMPGKGLEWMGEIYPGSGNTYYNEKFKGQVTISADKSISTAYLQWSSLKASDTAMYYCARYDYLGSSYGFDYWGAGTTVTVSS VL: AIRMTQSPSSFSASTGDRVTITCKASQDVSTAVAWYQQKPGKAPKLLIYSASYRYSGVPSRFSGSGSGTDFTLTISCLQSEDFATYYCQQHYNTPYTFGGGTKLEIK
8 | binds | CL25_hu_11-6 (antibody, V domains shown) VH: QVQLVQSGAEVKKPGASVKVSCKASGYTFTSYGLSWVRQATGQGLEWMGEIYPGSGNTYYNEKFKGRVTMTANTSISTAYMELSSLRSEDTAVYYCARYDYLGSSYGFDYWGAGTTVTVSS VL: AIRMTQSPSSFSASTGDRVTITCKASQDVSTAVAWYQQKPGKAPKLLIYSASYRYSGVPSRFSGSGSGTDFTLTISCLQSEDFATYYCQQHYNTPYTFGGGTKLEIK
9 | binds | CL25_hu_10-4 (antibody, V domains shown) VH: EVQLVQSGAEVKKPGESLKISCKGSGYTFTSYGLSWVRQMPGKGLEWMGEIYPGSGNTYYNEKFKGQVTISADKSISTAYLQWSSLKASDTAMYYCARYDYLGSSYGFDYWGAGTTVTVSS VL: DIQMTQSPSSLSASVGDRVTITCKASQDVSTAVAWYQQKPGKAPKLLLYSASYRYSGVPSRFSGSGSGTDYTLTISSLQPEDFATYYCQQHYNTPYTFGGGTKLEIK
10 | binds | CL25_hu_9-6 (antibody, V domains shown) VH: QVQLVQSGAEVKKPGSSVKVSCKASGYTFTSYGLSWVRQAPGQGLEWMGEIYPGSGNTYYNEKFKGRVTITADESTSTAYMELSSLRSEDTAVYYCARYDYLGSSYGFDYWGAGTTVTVSS VL: AIRMTQSPSSFSASTGDRVTITCKASQDVSTAVAWYQQKPGKAPKLLIYSASYRYSGVPSRFSGSGSGTDFTLTISCLQSEDFATYYCQQHYNTPYTFGGGTKLEIK
11 | binds | CL25_hu_11-4 (antibody, V domains shown) VH: QVQLVQSGAEVKKPGASVKVSCKASGYTFTSYGLSWVRQATGQGLEWMGEIYPGSGNTYYNEKFKGRVTMTANTSISTAYMELSSLRSEDTAVYYCARYDYLGSSYGFDYWGAGTTVTVSS VL: DIQMTQSPSSLSASVGDRVTITCKASQDVSTAVAWYQQKPGKAPKLLLYSASYRYSGVPSRFSGSGSGTDYTLTISSLQPEDFATYYCQQHYNTPYTFGGGTKLEIK
